Measurements reported in PubChem BioAssay (EPA / NIEHS).
This list was built around the results that the source calls inconclusive (neither active nor inactive); the mix of calls is not that of the screen. A potency beside an inconclusive call is a rough fit, not a confirmed value. Calls of active or inactive are those of the source. Rule for the calls: active = hit-call score of the fitted dose curve at least 0.9, where 1 is the maximum; inconclusive = response in the unintended direction; inactive = score below 0.9.

Sequences of proteins named here, by UniProt entry; tags and fusion partners are left off. A change or cut given only in a name is not applied to a line headed by its entry.
UniProt P06401: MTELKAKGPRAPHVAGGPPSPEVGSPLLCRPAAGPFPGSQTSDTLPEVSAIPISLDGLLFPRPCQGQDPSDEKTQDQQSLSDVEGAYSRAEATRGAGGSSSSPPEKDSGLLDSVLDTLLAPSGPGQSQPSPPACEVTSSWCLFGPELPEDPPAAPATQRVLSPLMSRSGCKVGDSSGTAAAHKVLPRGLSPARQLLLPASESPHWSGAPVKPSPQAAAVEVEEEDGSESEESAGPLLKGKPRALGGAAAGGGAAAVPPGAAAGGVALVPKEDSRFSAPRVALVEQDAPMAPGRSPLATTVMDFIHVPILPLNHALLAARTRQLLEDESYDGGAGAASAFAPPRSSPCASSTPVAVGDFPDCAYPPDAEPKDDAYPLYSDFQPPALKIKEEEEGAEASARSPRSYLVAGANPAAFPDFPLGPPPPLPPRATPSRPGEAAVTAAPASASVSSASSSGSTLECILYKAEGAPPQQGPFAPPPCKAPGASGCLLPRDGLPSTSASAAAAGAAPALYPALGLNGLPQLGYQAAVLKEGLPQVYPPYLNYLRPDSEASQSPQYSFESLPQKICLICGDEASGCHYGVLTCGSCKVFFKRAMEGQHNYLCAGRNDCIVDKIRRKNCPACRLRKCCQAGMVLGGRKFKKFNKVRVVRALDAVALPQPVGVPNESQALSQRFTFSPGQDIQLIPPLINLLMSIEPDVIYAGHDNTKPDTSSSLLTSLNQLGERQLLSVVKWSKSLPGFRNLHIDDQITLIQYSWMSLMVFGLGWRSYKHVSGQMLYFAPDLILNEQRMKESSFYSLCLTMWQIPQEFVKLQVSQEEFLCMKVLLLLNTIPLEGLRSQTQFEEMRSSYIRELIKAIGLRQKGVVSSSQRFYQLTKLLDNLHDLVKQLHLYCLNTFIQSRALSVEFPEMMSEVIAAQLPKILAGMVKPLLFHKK

Each molecule was assayed against PGR (gene 5241) (UniProt P06401) (assay: NVS_NR_hPR: NovaScreen (NVS) Nuclear Receptor Binding Assay for human Progestron Receptor (PR) (AID 2283360);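 note: active means loss of bound radioligand signal versus DMSO baseline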).
Procedure: NVS_NR_hPR is a biochemical, single-readout assay that uses extracted gene-proteins from T47D in a cell-free assay. Measurements were taken 18 hours after chemical dosing in a 96-well plate.NVS_NR_hPR is one of one assay component(s) measured or calculated from the NVS_NR_hPR assay. It is designed to make measurements of radioligand binding, a form of binding reporter, as detected with scintillation counting signals by Lysate-based radiodetection technology.Data from the assay component NVS_NR_hPR was analyzed into 1 assay endpoint. This assay endpoint, NVS_NR_hPR, was analyzed in the positive analysis fitting direction relative to DMSO as the negative control and baseline of activity. Using a type of binding reporter, loss-of-signal activity can be used to understand changes in the binding as they relate to the gene PGR. Furthermore, this assay endpoint can be referred to as a primary readout, because the performed assay has only produced 1 assay endpoint. To generalize the intended target to other relatable targets, this assay endpoint is annotated to the nuclear receptor intended target family, where the subfamily is steroidal.
Binding assays used specific radioligands (tritiated, iodinated) with non-radioactive competitive displacement ligands in agonist or antagonist protocols (as indicated) and various reference compounds and inhibitors to titrate specific binding to receptors and transporters. Most enzyme assays (CYPs, kinases, phosphatases, proteases, HDACs) used recombinant protein and specific substrates (fluorescence mostly, some colorimetric and radioactive) and inhibitors, followed by a biochemical separation of substrate and product. All assays for the biochemical HTS were initially run in duplicate at a single concentration (10 uM for CYP450 assays and 25 uM for all others). […] Each assay was run with positive and negative controls, and concurrent controls on every plate. The follow-up (secondary) screen tested active chemical-pairs in concentration series, as well as a few additional assays not tested in the primary screen, some selected negative inactives, and several cases re-run in the concentration series for confirmatory purposes.
For `COc1cc2c(c(OC)c1OC)-c1ccc(OC)c(=O)cc1[C@@H](NC(C)=O)CC2`, the AC50 was inconclusive: 25 µM. `Cc1oc(-c2ccccc2)nc1CCOc1ccc(C[C@H](Nc2ccccc2C(=O)c2ccccc2)C(=O)O)cc1` was tested, and the AC50 was inconclusive: 0.00658 µM. In the case of `CCOC(=O)C1=NN(c2ccc(Cl)cc2Cl)C(C)(C(=O)OCC)C1` (stereo not drawn), the AC50 is reported as inconclusive: 0.0445 µM. In the case of `c1ccc(Nc2ccccc2)cc1`, the outcome is reported as “inactive”. `CCCCC(CC)COC(=O)c1ccccc1C(=O)O` (stereo not drawn) was tested, and the AC50 was inconclusive: 25 µM. `CC(=[OH+])/C=C(/C)[O-].CC(=[OH+])/C=C(/C)[O-].CC(=[OH+])/C=C(/C)[O-].[Fe]` was tested, and the AC50 was inconclusive: 0.111 µM. In the case of `CC(C)COC(=O)CCCCC(=O)OCC(C)C`, the outcome is reported as “inactive”. In the case of `O=C(O)c1cc(N=Nc2ccc(S(=O)(=O)Nc3ccccn3)cc2)ccc1O`, the AC50 is reported as active: 36.5 µM. In the case of `CCCCCCCCCC(=O)O`, the AC50 is reported as inconclusive: 0.471 µM. For `Oc1ccc(C(c2ccc(O)cc2)C(Cl)(Cl)Cl)cc1`, the AC50 was active: 6.82 µM. With `CC(C)(C)[C@@H](O)[C@@H](Cc1ccc(Cl)cc1)n1cncn1` the AC50 was inconclusive: 0.0498 µM. For `Cc1cc(NC(=O)C(=O)O)cc(C)c1Oc1ccc(O)c2c1CCC2`, the AC50 was active: 7.64 µM. `Cc1ncc(CO)c(CO)c1O` was tested, and the AC50 was active: 16.9 µM.
